Earlier results on 1 compound are cited in PMC12434071, “Platinum-group metal half-sandwich complexes of 1-(α-D-glucopyranosyl)-4-hetaryl-1,2,3-triazoles: synthesis, solution equilibrium studies, and investigation of their anticancer and antimicrobial activities” (Frontiers in Chemistry, 2025).

For this data set, the system named is A2780 cells. Set-up: method as in Kacsir et al., 2023a. Conditions: cisplatin-sensitive A2780 cells; ref Kacsir et al., 2023a; cited from earlier work.

By IC50 is commonly meant the point on the concentration scale where inhibition reaches its midpoint. Regarding `N.N.[Cl][Pt][Cl]` [cisplatin], the IC50 is 1210 nM.
